The values below come from article PMC7532690.

Sequences of proteins named here, by UniProt entry; tags and fusion partners are left off. Residues count along the entry.
UniProt Q9JLF7, residues 27-859: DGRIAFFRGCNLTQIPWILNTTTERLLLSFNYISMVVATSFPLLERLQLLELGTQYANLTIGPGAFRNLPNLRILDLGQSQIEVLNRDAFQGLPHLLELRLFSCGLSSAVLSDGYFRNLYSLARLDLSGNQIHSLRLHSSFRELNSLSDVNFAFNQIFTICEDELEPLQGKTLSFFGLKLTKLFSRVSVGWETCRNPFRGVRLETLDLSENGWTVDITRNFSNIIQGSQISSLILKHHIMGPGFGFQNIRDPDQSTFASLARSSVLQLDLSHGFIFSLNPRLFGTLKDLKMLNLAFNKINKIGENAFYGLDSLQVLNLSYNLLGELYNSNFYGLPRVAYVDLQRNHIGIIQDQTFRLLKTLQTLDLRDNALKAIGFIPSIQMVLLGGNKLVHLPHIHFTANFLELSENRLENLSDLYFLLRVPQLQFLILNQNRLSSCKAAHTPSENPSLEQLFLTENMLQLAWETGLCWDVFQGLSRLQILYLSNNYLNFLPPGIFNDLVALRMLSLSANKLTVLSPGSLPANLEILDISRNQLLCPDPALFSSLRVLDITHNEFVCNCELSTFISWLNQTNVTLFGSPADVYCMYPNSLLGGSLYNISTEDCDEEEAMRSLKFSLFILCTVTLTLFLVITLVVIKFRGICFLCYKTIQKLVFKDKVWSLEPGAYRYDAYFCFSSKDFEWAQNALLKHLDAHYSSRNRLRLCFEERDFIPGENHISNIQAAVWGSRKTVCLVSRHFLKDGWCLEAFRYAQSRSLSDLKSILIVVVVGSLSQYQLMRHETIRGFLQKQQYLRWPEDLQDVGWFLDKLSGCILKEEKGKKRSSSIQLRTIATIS

No constants are given. Whether binding was seen depends on the method and setting. Binding seen in cells or lysates may run through a third protein.

This test deals with toll-like receptor 5 (mouse (endogenous in heart)) (UniProt Q9JLF7). Put plainly: co-IP; mouse heart lysates incubated with antibodies targeting TLR5 or IgG at 4 °C overnight, collected on Protein A+G agarose beads; immunoblot with NOX2 antibody or Syk antibody.

B1: NADPH oxidase (NOX) 2 (enzyme, UniProt Q61093 1-570)
chain: MGNWAVNEGLSIFVILVWLGLNVFLFINYYKVYDDGPKYNYTRKLLGSALALARAPAACLNFNCMLILLPVCRNLLSFLRGSSACCSTRIRRQLDRNLTFHKMVAWMIALHTAIHTIAHLFNVEWCVNARVGISDRYSIALSDIGDNENEEYLNFAREKIKNPEGGLYVAVTRLAGITGIVITLCLILIITSSTKTIRRSYFEVFWYTHHLFVIFFIGLAIHGAERIVRGQTAESLEEHNLDICADKIEEWGKIKECPVPKFAGNPPMTWKWIVGPMFLYLCERLVRFWRSQQKVVITKVVTHPFKTIELQMKKKGFKMEVGQYIFVKCPKVSKLEWHPFTLTSAPEEDFFSIHIRIVGDWTEGLFNACGCDKQEFQDAWKLPKIAVDGPFGTASEDVFSYEVVMLVGAGIGVTPFASILKSVWYKYCDNATSLKLKKIYFYWLCRDTHAFEWFADLLQLLETQMQERNNANFLSYNIYLTGWDESQANHFAVHHDEEKDVITGLKQKTLYGRPNWDNEFKTIASEHPNTTIGVFLCGPEALAETLSKQSISNSESGPRGVHFIFNKENF
With B1, the binding result is given as “no binding”.
